Record: PubChem BioAssay AID504804 (Drosophila RNAi Screening Center, 2011)

Assay: 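Knock-downs shielding fly cells from apoptosis caused by DNA damage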 (primary screen)
System: Drosophila Kc cells
Knock-down reagent: long dsRNA against Drosophila genes, 0.5 µg dsRNA per well
Timing: 96 h (48 h knock-down, then 48 h drug)
Challenge: doxorubicin 5 µg/ml for 48 h, added 48 h after dsRNA
Measured: 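Viability measured as cellular ATP by luminescence after 48 h knock-down then 48 h doxorubicin at 5 µg/ml; unnormalised plate counts for each replicate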
Reading the numbers: raw ATP luminescence: higher = more viable cells, protection from doxorubicin
Call rule: 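Active when both duplicate wells lie at least 2 SD above the plate mean and protection is confirmed by rescreening and independent dsRNAs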
The deposit covers about 19,000 reagents; shown is an unselected part of those with a known target gene and a result. Over the whole deposit, 47 (0.25%) got an active call. 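Signals are raw, not normalised; exact z-scores behind calls not deposited; actives needed confirmation, so some wells reaching 2 SD are inactive.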 Names joined by + are all predicted targets of the reagent.

no.	target	dsRNA	SD above plate mean	raw ATP luminescence, replicate 1	raw ATP luminescence, replicate 2	Call
1	CG32679	DRSC17644		1.72e5	1.87e5	inactive
2	Alp2 (Alkaline phosphatase 2)	DRSC04354		50757	36157	inactive
3	dnt (doughnut on 2)	DRSC03522		1.02e5	84953	inactive
4	ImpE1 (Ecdysone-inducible gene E1)	DRSC11195		86760	87663	inactive
5	ImpE1 (Ecdysone-inducible gene E1)	DRSC11196		71937	73443	inactive
6	AstCC (Allatostatin double C)	DRSC02404		44440	77773	inactive
7	CG11279	DRSC09837		82157	1.10e5	inactive
8	mRpS31 (mitochondrial ribosomal protein S31)	DRSC10556		24293	25630	inactive
9	eIF3d2 (eukaryotic translation initiation factor 3 subunit d2)	DRSC15651		46357	21773	inactive
10	alrm (astrocytic leucine-rich repeat molecule)	DRSC14436		51110	50300	inactive
11	CG34007	DRSC01790		77830	73037	inactive
12	CG31204	DRSC15106		48650	21040	inactive
13	Vang (Van Gogh)	DRSC07570		42513	68113	inactive
14	CG9095	DRSC20150		3.09e5	2.76e5	inactive
15	CG17712	DRSC00266		1.26e5	79770	inactive
16	IRSp53 (Insulin receptor substrate 53 kDa)	DRSC10891		93923	85033	inactive
17	ftz (fushi tarazu)	DRSC12626		56347	53193	inactive
18	CG17612	DRSC00505		1.22e5	83163	inactive
19	vn (vein)	DRSC11408		50993	61933	inactive
20	CG9284 (retired record)	DRSC03899		55153	43960	inactive
21	CG9284 (retired record)	DRSC04536		86153	65147	inactive
22	Trhn (Tryptophan hydroxylase neuronal)	DRSC08621		90410	66040	inactive
23	CG33777	DRSC08107		1.30e5	30280	inactive
24	twi (twist)	DRSC04720		38000	34490	inactive
25	Dic3	DRSC06058		52210	67800	inactive
26	mthl7 (methuselah-like 7)	DRSC10852		54700	82220	inactive
27	CG31493	DRSC12583		54517	21357	inactive
28	dop (drop out)	DRSC10655		28753	24767	inactive
29	Hdc (Histidine decarboxylase)	DRSC07439		64060	57753	inactive
30	CG2861	DRSC18229		52310	53780	inactive
31	Cht7 + tRNA:Cys-GCA-1-4 + tRNA:Lys-CTT-1-13	DRSC08021		1.23e5	1.23e5	inactive
32	CG31031 (retired record)	DRSC13964		2.13e5	2.14e5	inactive
33	mRpL14 (mitochondrial ribosomal protein L14)	DRSC18597		43320	55000	inactive
34	NP15.6	DRSC16756		39800	38740	inactive
35	Or85e (retired record)	DRSC16768		63877	57343	inactive
36	CG30289	DRSC03870		66107	69740	inactive
37	CG30015	DRSC05241		90693	89563	inactive
38	CG30015	DRSC07027		69927	51377	inactive
39	CG30015	DRSC07028		41147	75877	inactive
40	CG3124	DRSC04339		17863	27907	inactive
41	CG43394	DRSC01013		2.62e5	2.57e5	inactive
42	Elo68beta (Elongase 68beta)	DRSC09860		68890	1.26e5	inactive
43	RSG7 (Regulator of G-protein signaling 7)	DRSC20274		3.81e5	3.73e5	inactive
44	Baldspot	DRSC09671		82120	54950	inactive
45	CG5897	DRSC10555		83047	68620	inactive
46	Cpsf73 (Cleavage and polyadenylation specificity factor 73)	DRSC16291		72240	89960	inactive
47	Pvf3 (PDGF- and VEGF-related factor 3)	DRSC02284		22427	25487	inactive
48	Pvf3 (PDGF- and VEGF-related factor 3)	DRSC02285	at least 2 SD above plate mean	22760	30590	active
49	Pvf3 (PDGF- and VEGF-related factor 3)	DRSC02286		26670	28130	inactive
50	Pvf3 (PDGF- and VEGF-related factor 3)	DRSC02751		20423	23583	inactive
51	CG31463	DRSC14346		58327	51793	inactive
52	CG13564	DRSC04201		46763	45663	inactive
53	CG14540	DRSC14884		60880	77530	inactive
54	CG13306	DRSC09976		93297	1.01e5	inactive
55	Prp31 (Pre-mRNA processing factor 31)	DRSC10735		30297	28557	inactive
56	Hs3st-B (Heparan sulfate 3-O sulfotransferase-B)	DRSC20067		3.69e5	3.67e5	inactive
57	CG2291	DRSC06836		36810	73393	inactive
58	Ugt301D1 (UDP-glycosyltransferase family 301 member D1)	DRSC02021		40630	43493	inactive
59	schuy (schumacher-levy)	DRSC10284		71877	61417	inactive
60	AP-2mu (Adaptor Protein complex 2, mu subunit)	DRSC14090		48053	70817	inactive
61	CG34231	DRSC05323		73313	1.01e5	inactive
62	HERC2 (HECT and RLD domain containing protein 2)	DRSC20566		3.69e5	3.39e5	inactive
63	H (Hairless)	DRSC16692		82720	83390	inactive
64	CG12133	DRSC06108		32993	1.03e5	inactive

Entries listed so far whose gene name starts with E or e (2):
target	dsRNA	SD above plate mean	raw ATP luminescence, replicate 1	raw ATP luminescence, replicate 2	Call
eIF3d2 (eukaryotic translation initiation factor 3 subunit d2)	DRSC15651		46357	21773	inactive
Elo68beta (Elongase 68beta)	DRSC09860		68890	1.26e5	inactive

Further entries follow.
no.	target	dsRNA	SD above plate mean	raw ATP luminescence, replicate 1	raw ATP luminescence, replicate 2	Call
65	Sec13 (Secretory 13)	DRSC14144		36940	60840	inactive
66	CG31459	DRSC13380		2.20e5	1.77e5	inactive
67	CG8051	DRSC20077		3.50e5	2.90e5	inactive
68	CG11737	DRSC14364		62413	50877	inactive
69	CG1983	DRSC15410		44140	45060	inactive
70	chico	DRSC03531		91687	60917	inactive
71	Hydr2 (alpha/beta hydrolase2)	DRSC00607		1.17e5	78380	inactive
72	ple (pale)	DRSC11383		62117	63197	inactive
73	CkIalpha (Casein kinase Ialpha)	DRSC20231		3.69e5	3.90e5	inactive
74	CG31436	DRSC14661		57280	57850	inactive
75	Rab21	DRSC20968		1.74e5	1.94e5	inactive
76	CG17104	DRSC02573		98877	92580	inactive
77	Muc96D (Mucin 96D)	DRSC13709		2.46e5	2.18e5	inactive
78	roq (roquin)	DRSC10227		28803	23210	inactive
79	CG2961	DRSC18246		3.34e5	2.98e5	inactive
80	beat-IIa (beaten path IIa)	DRSC14813		68060	82500	inactive
81	beat-IIa (beaten path IIa)	DRSC14814		90560	73050	inactive
82	CG33791 + CG12105 + CG18170	DRSC08387		58243	55560	inactive
83	CG3651	DRSC03730		64637	67093	inactive
84	CG17637	DRSC11740		72313	70890	inactive
85	Bka (Bekka)	DRSC02757		30030	49277	inactive
86	Asator	DRSC17136		56740	43370	inactive
87	CG31267	DRSC15748		89720	86190	inactive
88	CG15861	DRSC04274		50913	44180	inactive
89	fs(2)ltoPP43 (female sterile (2) ltoPP43)	DRSC02067		35963	36427	inactive
90	sti (sticky)	DRSC09739		62723	49577	inactive
91	sti (sticky)	DRSC09740		64910	48690	inactive
92	CG4374	DRSC15570		66490	55880	inactive
93	CG9426	DRSC03219		39673	47420	inactive
94	CG32213 + CG12519 + 825-Oak + 1 more	DRSC09615		78037	66270	inactive
95	SdhBL (Succinate dehydrogenase, subunit B (iron-sulfur)-like)	DRSC20039		3.47e5	3.35e5	inactive
96	l(2)SH0834 (lethal (2) SH0834)	DRSC02854		42623	66623	inactive
97	Sap30 (SIN3-associated polypeptide 30)	DRSC19916		3.26e5	3.13e5	inactive
98	Bdbt (Bride of doubletime)	DRSC15218		52940	47780	inactive
99	Gr36c (Gustatory receptor 36c)	DRSC02437		59523	66847	inactive
100	Faf2 (Fas-associated factor 2)	DRSC03325		92030	64960	inactive
101	CG31516	DRSC11994		58843	76607	inactive
102	Boot (Bootlegger)	DRSC06412		41193	64580	inactive
103	Hs3st-A (Heparan sulfate 3-O sulfotransferase-A)	DRSC06507		38237	61363	inactive
104	CG18530	DRSC15341		47710	58880	inactive
105	Rh6 (Rhodopsin 6)	DRSC16823		87010	58760	inactive
106	CG42516 + Pbp49	DRSC06073		73087	63003	inactive
107	dib (disembodied)	DRSC08711		42857	45830	inactive
